Laboratory results from patent US20170044264A1.
These are yes or no findings as the source states them, for the method shown. Some binding calls cover weakened binding; strength is not graded here.

The chains behind the UniProt entries cited, without tags or fusion partners. Where a name states a change or a piece, a line headed by the entry shows the natural chain unless it says otherwise.
UniProt P48023: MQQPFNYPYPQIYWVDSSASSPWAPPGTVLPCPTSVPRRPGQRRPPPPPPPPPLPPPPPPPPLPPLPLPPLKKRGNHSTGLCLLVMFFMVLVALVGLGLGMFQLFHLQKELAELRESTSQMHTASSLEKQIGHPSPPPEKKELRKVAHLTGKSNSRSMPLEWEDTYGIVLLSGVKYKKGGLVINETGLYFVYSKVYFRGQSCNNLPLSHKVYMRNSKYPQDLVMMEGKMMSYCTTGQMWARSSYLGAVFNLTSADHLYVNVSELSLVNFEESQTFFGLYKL

Experiments:
[1] = target: T1, synthetic N-terminal peptide encoding the first 21 aa of human CD95L (CD95L_NT 1-21) (human); assay: ELISA on immobilised CD95L-NT_1-21 peptide; confirmed by competition with the specific peptide
T1 sequence (peptide): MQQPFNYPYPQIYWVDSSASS

human CD95L (human) [2] = target: human CD95L (human) (UniProt P48023); assay: IHC on CD95L-positive and CD95L-negative glioblastoma sections
human CD95L (human) [3] = target: human CD95L (human) (UniProt P48023); assay: IHC-based screening
human CD95L (human) [4] = target: human CD95L (human) (UniProt P48023); assay: IHC on human tonsil sections (subset of plasma cells)
human CD95L (human) [5] = target: human CD95L (human) (UniProt P48023); assay: IHC on human tonsil sections, with and without competing peptide CD95L-NT_1-21

Measured: binding

B1: recombinant anti-CD95L rabbit monoclonal antibody (APG1181) (antibody, V domains shown)
VH: QEQLEESGGDLVKPGASLTLTCTASGFSFSSSAWICWVRQAPGKGLEWIACIFTGNSDITIYANWAKGRSTISRTSSTTVTLQVTSLTAADTATYFCARNLAATKLWGPGTLVTVSS
VL: LVMTQTPASVSAAVGGTVTISCQASQSITDQLSWYQHQPGQPPKLLIYRASTLASGVPSRFSGSGSETEFSLTISGLQCADAATYYCLGVHGYSSDDAISFGGGTEVVVKG
binds: [1] | human CD95L (human) [2]

B2: anti-CD95L rabbit monoclonal antibody purified from the supernatant of rabbit hybridoma clone 24-8 (antibody, V domains shown)
VH: QEQLEESGGDLVKPGASLTLTCTASGFSFSSSAWICWVRQAPGKGLEWIACIFTGNSDITIYANWAKGRSTISRTSSTTVTLQVTSLTAADTATYFCARNLAATKLWGPGTLVTVSS
VL: LVMTQTPASVSAAVGGTVTISCQASQSITDQLSWYQHQPGQPPKLLIYRASTLASGVPSRFSGSGSETEFSLTISGLQCADAATYYCLGVHGYSSDDAISFGGGTEVVVKG
binds: all assays above
